Measurements reported in PubChem BioAssay AID652272 (Drosophila RNAi Screening Center, 2013).
Assay: 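Finding fly genes that regulate Hedgehog signal transduction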 (primary screen). Cells: Drosophila clone 8 (Cl8) cells. Reagent: long dsRNA against Drosophila genes. Measured: 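Firefly light from a Hedgehog-responsive ptc promoter reporter and Renilla reference light, both read on a plate reader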. Scale: firefly Hh reporter signal: higher = more ptc reporter light; Renilla reference signal: higher = more Renilla control light. Hit rule: 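Called a hit if the two-replicate mean z-score lies below -2 or above +3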. Meaning of the calls: active = hit: reporter lowered or raised; inactive = not a hit.
The screen tested about 21,000 reagents; shown is an unselected part of those that have a named target and a result. In the full data, 503 (2.4%) were called active. 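Raw plate light values, not normalised; calls rest on replicate z-scores that were not deposited; hits include reporter decreases as well as increases.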 Entries without a mark were called inactive. Not given: the amount of reagent, the time to read-out.

loaf [DRSC09130] → firefly Hh reporter signal, replicate 1 = 1.06e5; firefly Hh reporter signal, replicate 2 = 1.62e5; Renilla reference signal, replicate 1 = 2744; Renilla reference signal, replicate 2 = 6569
SpdS [DRSC16408] → firefly Hh reporter signal, replicate 1 = 79058; firefly Hh reporter signal, replicate 2 = 1.47e5; Renilla reference signal, replicate 1 = 2898; Renilla reference signal, replicate 2 = 3961
olf413 [DRSC11543] → firefly Hh reporter signal, replicate 1 = 1.62e5; Renilla reference signal, replicate 1 = 4025
olf413 [DRSC11679] → firefly Hh reporter signal, replicate 1 = 5.65e5; firefly Hh reporter signal, replicate 2 = 1.44e5; firefly Hh reporter signal, replicate 3 = 1.90e5; Renilla reference signal, replicate 1 = 4880; Renilla reference signal, replicate 2 = 3616
olf413 [DRSC11721] → firefly Hh reporter signal, replicate 1 = 1.39e5; firefly Hh reporter signal, replicate 2 = 1.44e5; Renilla reference signal, replicate 1 = 4218; Renilla reference signal, replicate 2 = 4160
olf413 [DRSC11833] → firefly Hh reporter signal, replicate 1 = 1.29e5; firefly Hh reporter signal, replicate 2 = 1.82e5; Renilla reference signal, replicate 1 = 4150; Renilla reference signal, replicate 2 = 5029

As entered above:
Value of olf413 [DRSC11543] under “firefly Hh reporter signal, replicate 1”: 1.62e5
olf413 [DRSC11833], firefly Hh reporter signal, replicate 1: 1.29e5

Further records:
Gr59c [DRSC04185] → firefly Hh reporter signal, replicate 1 = 85190; firefly Hh reporter signal, replicate 2 = 65130; Renilla reference signal, replicate 1 = 2272; Renilla reference signal, replicate 2 = 4886
lncRNA:CR32657 [DRSC19403] → firefly Hh reporter signal, replicate 1 = 67930; firefly Hh reporter signal, replicate 2 = 2.65e5; Renilla reference signal, replicate 1 = 1948; Renilla reference signal, replicate 2 = 9923
CG4661 [DRSC19910] → firefly Hh reporter signal, replicate 1 = 51748; firefly Hh reporter signal, replicate 2 = 2.71e5; Renilla reference signal, replicate 1 = 1349; Renilla reference signal, replicate 2 = 10515
CG3224 [DRSC18295] → firefly Hh reporter signal, replicate 1 = 74272; firefly Hh reporter signal, replicate 2 = 2.23e5; Renilla reference signal, replicate 1 = 3138; Renilla reference signal, replicate 2 = 9453
CG16756 [DRSC18115] → firefly Hh reporter signal, replicate 1 = 60082; firefly Hh reporter signal, replicate 2 = 2.04e5; Renilla reference signal, replicate 1 = 1452; Renilla reference signal, replicate 2 = 8757
CG14879 [DRSC15003] → firefly Hh reporter signal, replicate 1 = 1.11e5; firefly Hh reporter signal, replicate 2 = 1.26e5; Renilla reference signal, replicate 1 = 2384; Renilla reference signal, replicate 2 = 3481
